# Measurements as given in the supplement of paper PMC8728848.
# The other results are listed elsewhere or left out.
# How the values were obtained:
# Experiment in all cases: glycan array binding signal (z-score within array); higher = stronger binding
# Settings in all cases: glycan notation: IUPAC condensed, linker removed
# [1] = biological target: Gal3S6S(b1-4)GlcNAc
# Outline: (§1)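 The binding signal is a Z-score computed within each array. Data were drawn from 3228 arrays in the Consortium for Functional Glycomics database, restricted to those with a known protein sequence. Scores were averaged over arrays of the same protein sequence at different concentrations or buffers, and over linkers, and negative values can be taken as non-binding.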
# [2] = biological target: Gal3S6S(b1-4)GlcNAc6S
# Outline: as §1
# [3] = biological target: Gal4S(b1-4)GlcNAc
# Outline: as §1
# [4] = biological target: Gal4S6S(b1-4)GlcNAc
# Outline: as §1
# [5] = biological target: Gal6P(b1-4)GlcNAc
# Outline: as §1
# [6] = biological target: Gal6S(b1-3)GlcNAc
# Outline: as §1
# [7] = biological target: Gal6S(b1-3)GlcNAc6S
# Outline: as §1
# [8] = biological target: Gal6S(b1-4)Glc
# Outline: as §1
# [9] = biological target: Gal6S(b1-4)Glc6S
# Outline: as §1
# [10] = biological target: Gal6S(b1-4)GlcNAc
# Outline: as §1
# [11] = biological target: Gal6S(b1-4)GlcNAc6S
# Outline: as §1
# [12] = biological target: GalNAc(a1-3)Gal
# Outline: as §1
# [13] = biological target: GalNAc(a1-3)GalNAc
# Outline: as §1
# [14] = biological target: GalNAc(a1-3)GalNAc(b1-3)Gal(a1-4)Gal(b1-4)Glc
# Outline: as §1
# [15] = biological target: GalNAc(a1-3)GalNAc(b1-3)Gal(a1-4)Gal(b1-4)GlcNAc
# Outline: as §1
# [16] = biological target: GalNAc(b1-3)Gal
# Outline: as §1
# [17] = biological target: GalNAc(b1-3)Gal(a1-4)Gal(b1-4)GlcNAc
# Outline: as §1
# [18] = biological target: GalNAc(b1-3)Gal(a1-4)Gal(b1-4)GlcNAc(b1-3)Gal(b1-4)Glc
# Outline: as §1
# [19] = biological target: GalNAc(b1-3)Gal(a1-6)Gal(b1-4)Glc
# Outline: as §1
# [20] = biological target: GalNAc(b1-3)GalNAc
# Outline: as §1
# [21] = biological target: GalNAc(b1-3)GlcNAc
# Outline: as §1
# [22] = biological target: GalNAc(b1-4)Gal(b1-4)Glc
# Outline: as §1
# [23] = biological target: GalNAc(b1-4)GlcNAc
# Outline: as §1
# [24] = biological target: GalNAc(b1-4)GlcNAc(b1-2)Man
# Outline: as §1
# [25] = biological target: GalNAc(b1-4)GlcNAc(b1-2)Man(a1-3)[GalNAc(b1-4)GlcNAc(b1-2)Man(a1-6)]Man(b1-4)GlcNAc(b1-4)GlcNAc
# Outline: as §1
# [26] = biological target: GalNAc(b1-4)GlcNAc(b1-3)GalNAc(b1-4)GlcNAc
# Outline: as §1
# [27] = biological target: GalNAc(b1-4)GlcNAc6S
# Outline: as §1
# [28] = biological target: GalNAc(b1-6)GalNAc
# Outline: as §1
# [29] = biological target: GalNAc3S(b1-4)GlcNAc
# Outline: as §1
# [30] = biological target: GalNAc3S(b1-4)GlcNAc3S
# Outline: as §1
# [31] = biological target: GalNAc3S(b1-4)[Fuc(a1-3)]GlcNAc
# Outline: as §1
# [32] = biological target: GalNAc4S6S(b1-4)GlcNAc
# Outline: as §1
# [33] = biological target: GalNAc6S(b1-4)GlcNAc
# Outline: as §1
# [34] = biological target: Glc(a1-4)Glc
# Outline: as §1
# [35] = biological target: Glc(a1-4)Glc(a1-4)Glc(a1-4)Glc
# Outline: as §1
# [36] = biological target: Glc(a1-6)Glc(a1-6)Glc
# Outline: as §1
# [37] = biological target: Glc(a1-6)Glc(a1-6)Glc(a1-6)Glc
# Outline: as §1
# [38] = biological target: Glc(b1-4)Glc
# Outline: as §1
binder,measurement,setting,value
his-Lectin-24A (Drosophila melanogaster) (protein) MFRLSVLVLNLLLVSHEFSAGTAKIEIQPLPALCNGYCFPTLKPVMEYVAIHQDKWNTCTEILANEARKDQIQLNIQLDALKADVSNIKASQLSKDEKLDRMEREQFAMHESLETINRYLTVKLDRTKLQLEAIKNTMDYMKAQMDGYFSAINGVQCLQPGFEKIGDRYFYIEEDVELNWLDAQAKCRRMGGHLASIKTKQEFDAIVEKLDDSKSYFLGVNENTKTGDFVSAASGKSCLYHEWGPGEPHHNNDQERCVSILRKLMHVGNCTYEKRFICQYGI,glycan array binding signal (z-score),[1],0.84
same,glycan array binding signal (z-score),[2],0.863
same,glycan array binding signal (z-score),[3],-0.768
same,glycan array binding signal (z-score),[4],-1.63
same,glycan array binding signal (z-score),[5],0.018
same,glycan array binding signal (z-score),[6],2.26
same,glycan array binding signal (z-score),[7],0.346
same,glycan array binding signal (z-score),[8],-0.962
same,glycan array binding signal (z-score),[9],-0.236
same,glycan array binding signal (z-score),[10],0.295
same,glycan array binding signal (z-score),[11],1.02
same,glycan array binding signal (z-score),[12],0.977
same,glycan array binding signal (z-score),[13],1.11
same,glycan array binding signal (z-score),[14],1.17
same,glycan array binding signal (z-score),[15],-0.19
same,glycan array binding signal (z-score),[16],1.97
same,glycan array binding signal (z-score),[17],0.373
same,glycan array binding signal (z-score),[18],0.535
same,glycan array binding signal (z-score),[19],-0.756
same,glycan array binding signal (z-score),[20],-0.514
same,glycan array binding signal (z-score),[21],-1.41
same,glycan array binding signal (z-score),[22],0.65
same,glycan array binding signal (z-score),[23],-0.083
same,glycan array binding signal (z-score),[24],-1.85
same,glycan array binding signal (z-score),[25],0.339
same,glycan array binding signal (z-score),[26],-0.119
same,glycan array binding signal (z-score),[27],-1
same,glycan array binding signal (z-score),[28],-0.51
same,glycan array binding signal (z-score),[29],0.808
same,glycan array binding signal (z-score),[30],3.3
same,glycan array binding signal (z-score),[31],0.419
same,glycan array binding signal (z-score),[32],6.71
same,glycan array binding signal (z-score),[33],-0.244
same,glycan array binding signal (z-score),[34],-0.592
same,glycan array binding signal (z-score),[35],-0.325
same,glycan array binding signal (z-score),[36],-1.11
same,glycan array binding signal (z-score),[37],-0.677
same,glycan array binding signal (z-score),[38],-0.805

# 2 entries drawn at random from those above:
binder,measurement,setting,value
his-Lectin-24A (Drosophila melanogaster) (protein) MFRLSVLVLNLLLVSHEFSAGTAKIEIQPLPALCNGYCFPTLKPVMEYVAIHQDKWNTCTEILANEARKDQIQLNIQLDALKADVSNIKASQLSKDEKLDRMEREQFAMHESLETINRYLTVKLDRTKLQLEAIKNTMDYMKAQMDGYFSAINGVQCLQPGFEKIGDRYFYIEEDVELNWLDAQAKCRRMGGHLASIKTKQEFDAIVEKLDDSKSYFLGVNENTKTGDFVSAASGKSCLYHEWGPGEPHHNNDQERCVSILRKLMHVGNCTYEKRFICQYGI,glycan array binding signal (z-score),[34],-0.592
same,glycan array binding signal (z-score),[16],1.97
